Laboratory results: PubChem BioAssay AID652272 (Drosophila RNAi Screening Center, 2013)
In all, the deposit lists about 21,000 reagents; shown is an unselected part of those with a known target gene and a result. In the full data, 503 (2.4%) got an active call. 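Raw plate light values, not normalised; calls rest on replicate z-scores that were not deposited; hits include reporter decreases as well as increases.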 Unmarked entries are inactive. A plus sign joins genes that one reagent is predicted to hit. No sequences are given here. Not given: the amount of reagent, the time to read-out.

Screen: 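Genes whose knock-down decreases or increases Hedgehog reporter output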 (primary screen)
Cell system: Drosophila clone 8 (Cl8) cells
Reagent: long dsRNA against Drosophila genes
Measurement: 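Plate reader light from a firefly reporter under a ptc promoter fragment that responds to Hedgehog, with Renilla light as transfection reference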
Reading the numbers: firefly Hh reporter signal: higher = more ptc reporter light; Renilla reference signal: higher = more Renilla control light
Rule for the call: 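Hit when the z-score averaged over two replicates is under -2 or over +3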
Calls: active = hit: reporter lowered or raised; inactive = not a hit

CG2104
- firefly Hh reporter signal, replicate 1: 94704
- firefly Hh reporter signal, replicate 2: 1.56e5
- Renilla reference signal, replicate 1: 3895
- Renilla reference signal, replicate 2: 4611

CG11307
- firefly Hh reporter signal, replicate 1: 1.54e5
- firefly Hh reporter signal, replicate 2: 1.66e5
- Renilla reference signal, replicate 1: 6212
- Renilla reference signal, replicate 2: 5798

CG1024
- firefly Hh reporter signal, replicate 1: 48025
- firefly Hh reporter signal, replicate 2: 1.05e5
- Renilla reference signal, replicate 1: 1472
- Renilla reference signal, replicate 2: 3489

CG30043
- firefly Hh reporter signal, replicate 1: 80992
- firefly Hh reporter signal, replicate 2: 46896
- Renilla reference signal, replicate 1: 2024
- Renilla reference signal, replicate 2: 3495

Copied from the entries so far, 2 entries:
CG11307
- firefly Hh reporter signal, replicate 1: 1.54e5
- firefly Hh reporter signal, replicate 2: 1.66e5
- Renilla reference signal, replicate 1: 6212
- Renilla reference signal, replicate 2: 5798

CG1024
- firefly Hh reporter signal, replicate 1: 48025
- firefly Hh reporter signal, replicate 2: 1.05e5
- Renilla reference signal, replicate 1: 1472
- Renilla reference signal, replicate 2: 3489

Next records follow:
CIA30
- firefly Hh reporter signal, replicate 1: 1.11e5
- firefly Hh reporter signal, replicate 2: 1.29e5
- Renilla reference signal, replicate 1: 2361
- Renilla reference signal, replicate 2: 3573

Tsen54
- firefly Hh reporter signal, replicate 1: 89316
- firefly Hh reporter signal, replicate 2: 30859
- firefly Hh reporter signal, replicate 3: 45716
- Renilla reference signal, replicate 1: 4037
- Renilla reference signal, replicate 2: 4409

Wnk
- firefly Hh reporter signal, replicate 1: 51243
- firefly Hh reporter signal, replicate 2: 30418
- Renilla reference signal, replicate 1: 1755
- Renilla reference signal, replicate 2: 1157

CG11905
- firefly Hh reporter signal, replicate 1: 1.19e5
- firefly Hh reporter signal, replicate 2: 91159
- Renilla reference signal, replicate 1: 4906
- Renilla reference signal, replicate 2: 3650

CG12384
- firefly Hh reporter signal, replicate 1: 1.78e5
- firefly Hh reporter signal, replicate 2: 1.33e5
- Renilla reference signal, replicate 1: 7604
- Renilla reference signal, replicate 2: 4293

CG6661 + asRNA:CR42871
- firefly Hh reporter signal, replicate 1: 1.16e5
- firefly Hh reporter signal, replicate 2: 74925
- Renilla reference signal, replicate 1: 5035
- Renilla reference signal, replicate 2: 3059

lncRNA:CR34024
- firefly Hh reporter signal, replicate 1: 47014
- firefly Hh reporter signal, replicate 2: 2.04e5
- Renilla reference signal, replicate 1: 11780
- Renilla reference signal, replicate 2: 4332

CG11670
- firefly Hh reporter signal, replicate 1: 87552
- firefly Hh reporter signal, replicate 2: 79827
- Renilla reference signal, replicate 1: 2769
- Renilla reference signal, replicate 2: 2240

CG2070
- firefly Hh reporter signal, replicate 1: 63847
- firefly Hh reporter signal, replicate 2: 24432
- Renilla reference signal, replicate 1: 1794
- Renilla reference signal, replicate 2: 2360

Hsp70Bc
- firefly Hh reporter signal, replicate 1: 57239
- firefly Hh reporter signal, replicate 2: 94569
- Renilla reference signal, replicate 1: 2156
- Renilla reference signal, replicate 2: 2636
